Reference: PubChem BioAssay AID686938 (Drosophila RNAi Screening Center, 2013)

Aim: 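Looking for CRAC channel components and the factors controlling them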 (primary screen)
Cell system: Drosophila S2R+ cells
Reagent: long dsRNA against Drosophila genes, about 0.25 µg dsRNA per well, roughly 10,000 cells
Time to read-out: 5 days of knock-down before the calcium assay
Treatment: thapsigargin (SERCA pump blocker) to empty calcium stores; entry signal taken 4 min after adding it
Measured: 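Per-well fluo-4 fluorescence in two replicates, unnormalised, measured in resting cells and 4 min after store depletion by the SERCA blocker thapsigargin; ratio of the two present in few wells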
Reading the numbers: calcium entry signal: higher = stronger calcium signal after store depletion; resting calcium signal: higher = higher resting calcium signal
Active means: 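Hit if the duplicate-averaged plate z-score for entry over resting signal is under −3; wells with weak total dye signal (Fmax z < −2) or more than 5 off-targets removed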
Meaning of the calls: active = strongly reduced calcium entry; inactive = no strong reduction
The deposit covers about 23,000 reagents; this is an unselected part of those that have a named target and a result. In the full data, 75 (0.33%) were called active. 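Raw plate signals without normalisation; calls rest on plate z-scores that were not deposited; ratio present for only 364 wells.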 A plus sign joins genes that one reagent is predicted to hit. Reagent sequences are not shown. The record does not give: the dose of the treatment.

What is on record for CG5342 (GeneID 41389) [DRSC15776]?
calcium entry signal, replicate 1 (fluorescence units): 4.45e7; calcium entry signal, replicate 2 (fluorescence units): 4.28e7; resting calcium signal, replicate 1 (fluorescence units): 2.08e7; resting calcium signal, replicate 2 (fluorescence units): 2.03e7; activity call: inactive

For Apoltp (GeneID 34283) [DRSC02508], how do the results read?
calcium entry signal, replicate 1 (fluorescence units): 4.62e7; resting calcium signal, replicate 1 (fluorescence units): 2.24e7; activity call: inactive

For Dhc1 (GeneID 41171) [DRSC12748], what was measured?
calcium entry signal, replicate 1 (fluorescence units): 1.50e7; calcium entry signal, replicate 2 (fluorescence units): 2.46e7; resting calcium signal, replicate 1 (fluorescence units): 8.08e6; resting calcium signal, replicate 2 (fluorescence units): 1.15e7; activity call: inactive

How did the screen score Dhc1 (GeneID 41171) [DRSC16503]?
calcium entry signal, replicate 1 (fluorescence units): 4.15e7; calcium entry signal, replicate 2 (fluorescence units): 3.30e7; resting calcium signal, replicate 1 (fluorescence units): 2.07e7; resting calcium signal, replicate 2 (fluorescence units): 1.58e7; activity call: inactive

How did the screen score ZnT33D (GeneID 326167) [DRSC02591]?
calcium entry signal, replicate 1 (fluorescence units): 3.64e7; calcium entry signal, replicate 2 (fluorescence units): 2.61e7; resting calcium signal, replicate 1 (fluorescence units): 1.75e7; resting calcium signal, replicate 2 (fluorescence units): 1.33e7; activity call: inactive

Which result is listed for Ntan1 (GeneID 37147) [DRSC07546]?
calcium entry signal, replicate 1 (fluorescence units): 5.19e7; calcium entry signal, replicate 2 (fluorescence units): 5.33e7; resting calcium signal, replicate 1 (fluorescence units): 2.22e7; resting calcium signal, replicate 2 (fluorescence units): 2.44e7; activity call: inactive

What did the screen give for CG12877 (GeneID 43333) [DRSC14565]?
calcium entry signal, replicate 1 (fluorescence units): 2.62e7; calcium entry signal, replicate 2 (fluorescence units): 3.14e7; resting calcium signal, replicate 1 (fluorescence units): 1.28e7; resting calcium signal, replicate 2 (fluorescence units): 1.35e7; activity call: inactive

For CG42568 + DnaJ-60 [DRSC04207], what was measured?
calcium entry signal, replicate 1 (fluorescence units): 2.83e7; calcium entry signal, replicate 2 (fluorescence units): 2.97e7; resting calcium signal, replicate 1 (fluorescence units): 1.52e7; resting calcium signal, replicate 2 (fluorescence units): 1.55e7; activity call: inactive

How did the screen score CG42568 + DnaJ-60 [DRSC04611]?
calcium entry signal, replicate 1 (fluorescence units): 3.76e7; resting calcium signal, replicate 1 (fluorescence units): 2.03e7; activity call: inactive

What is on record for Mur18B (GeneID 32912) [DRSC20063]?
calcium entry signal, replicate 1 (fluorescence units): 4.36e7; calcium entry signal, replicate 2 (fluorescence units): 4.64e7; resting calcium signal, replicate 1 (fluorescence units): 2.04e7; resting calcium signal, replicate 2 (fluorescence units): 1.82e7; activity call: inactive

What did the screen give for CG1724 (GeneID 33097) [DRSC20548]?
calcium entry signal, replicate 1 (fluorescence units): 3.66e7; calcium entry signal, replicate 2 (fluorescence units): 4.02e7; resting calcium signal, replicate 1 (fluorescence units): 2.03e7; resting calcium signal, replicate 2 (fluorescence units): 1.71e7; activity call: inactive

For CG32551 (GeneID 318085) [DRSC19259], how do the results read?
calcium entry signal, replicate 1 (fluorescence units): 4.19e7; calcium entry signal, replicate 2 (fluorescence units): 4.26e7; resting calcium signal, replicate 1 (fluorescence units): 1.89e7; resting calcium signal, replicate 2 (fluorescence units): 1.69e7; activity call: inactive

For CG15239 (GeneID 31343) [DRSC17972], what was measured?
calcium entry signal, replicate 1 (fluorescence units): 2.31e7; calcium entry signal, replicate 2 (fluorescence units): 3.26e7; resting calcium signal, replicate 1 (fluorescence units): 1.15e7; resting calcium signal, replicate 2 (fluorescence units): 1.44e7; activity call: inactive

For CG15202 (GeneID 32052) [DRSC19649], what does the deposit list?
calcium entry signal, replicate 1 (fluorescence units): 3.49e7; calcium entry signal, replicate 2 (fluorescence units): 4.89e7; resting calcium signal, replicate 1 (fluorescence units): 1.79e7; resting calcium signal, replicate 2 (fluorescence units): 2.42e7; activity call: inactive

2 of these entries in another layout.
| gene knocked down | dsRNA | calcium entry signal, replicate 1 (fluorescence units) | calcium entry signal, replicate 2 (fluorescence units) | resting calcium signal, replicate 1 (fluorescence units) | resting calcium signal, replicate 2 (fluorescence units) | activity call |
| --- | --- | --- | --- | --- | --- | --- |
| Dhc1 (GeneID 41171) | DRSC16503 | 4.15e7 | 3.30e7 | 2.07e7 | 1.58e7 | inactive |
| ZnT33D (GeneID 326167) | DRSC02591 | 3.64e7 | 2.61e7 | 1.75e7 | 1.33e7 | inactive |
